Laboratory results from PubChem BioAssay AID330 (DTP/NCI, 2004).
The list is a part of this screen's results and no random one: it gathers tests that were run many times, whatever their T/C, doses with no T/C, and many T/C values between a quarter and a half above the control. Further doses and runs are listed elsewhere. T/C is the treated group as % of the vehicle group. Some doses have a count of surviving animals in place of a T/C: the source holds a T/C of zero for them, seemingly a mark for toxic or unscored doses. Some doses without a T/C left all or most animals alive at the check, yet need not have been tolerated: the source hardly ever lists a survival T/C far under the control, and the zero likely stands for such cases as well. Survivors were counted at the toxicity check, usually on the fifth day, unless a day is given; later deaths do not show. Schedule codes are those of the source, read here as Q, the interval in days (D) or hours (H), X, the number of doses. Some doses were run more than once; the values are given in rising order. For survival time, this PubChem deposit counts one and a half times the control or more as active, and values a quarter to a half above the control carry no call in these data; other NCI protocols may use other cut-offs. Some T/C values are followed by the survivors on the day toxicity was checked, most often the fifth; without a count, all were alive then.

Tested on: P388 leukemia ip, CD2F1 mice, survival T/C
Experiment: NCI In Vivo Anticancer Drug Screen. Data for tumor model P388 Leukemia (intraperitoneal) in CD2F1 (CDF1) mice
Settings: T/C endpoint: median survival time, higher T/C = longer survival
[1] = dose: 12.5 mg/kg/injection, schedule: Q01DX009 (ip), vehicle: saline
[2] = dose: 25.0 mg/kg/injection, schedule: Q01DX009 (ip), vehicle: saline
[3] = dose: 50.0 mg/kg/injection, schedule: Q01DX009 (ip), vehicle: saline
[4] = dose: 100.0 mg/kg/injection, schedule: Q01DX009 (ip), vehicle: saline
[5] = dose: 120.0 mg/kg/injection, schedule: Q01DX005 (ip), vehicle: saline with Tween-80
[6] = dose: 240.0 mg/kg/injection, schedule: Q01DX005 (ip), vehicle: saline with Tween-80
[7] = dose: 8.0 mg/kg/injection, schedule: Q01DX009 (ip), vehicle: saline with Tween-80
[8] = dose: 100.0 mg/kg/injection, schedule: Q01DX005 (ip), vehicle: Klucel (hydroxypropylcellulose) (HPC)
[9] = dose: 200.0 mg/kg/injection, schedule: Q01DX005 (ip), vehicle: Klucel (hydroxypropylcellulose) (HPC)
[10] = dose: 25.0 mg/kg/injection, schedule: Q01DX009 (ip), vehicle: saline with Tween-80
[11] = dose: 50.0 mg/kg/injection, schedule: Q01DX009 (ip), vehicle: saline with Tween-80
[12] = dose: 100.0 mg/kg/injection, schedule: Q01DX009 (ip), vehicle: saline with Tween-80
[13] = dose: 200.0 mg/kg/injection, schedule: Q01DX009 (ip), vehicle: saline with Tween-80
[14] = dose: 25.0 mg/kg/injection, schedule: Q01DX001 (ip), vehicle: Klucel (hydroxypropylcellulose) (HPC)
[15] = dose: 50.0 mg/kg/injection, schedule: Q01DX001 (ip), vehicle: Klucel (hydroxypropylcellulose) (HPC)
[16] = dose: 100.0 mg/kg/injection, schedule: Q01DX001 (ip), vehicle: Klucel (hydroxypropylcellulose) (HPC)

With COCCNCCN1CCN(CCCN2c3ccccc3Sc3ccc(C(F)(F)F)cc32)CC1 the T/C [1] was 140 % of control, the survivor count [1] was 5 of 6 and the T/C [2] was 130 % of control. For the same compound, the survivor count [2] was 5 of 6, the survivor count [3] was 6 of 6 and the survivor count [4] was 0 of 6.

With CC(C=O)[Se]c1ccccc1 (stereo not given) the survivor count [5] was 0 of 6 and the survivor count [6] was 0 of 6.

c1ccc(O[Si](Oc2ccccc2)(Oc2ccccc2)Oc2ccccc2)cc1 was tested, and the survivor count (dose: 200.0 mg/kg/injection, schedule: Q01DX009 (ip), vehicle: other) was 5 of 6.

CC[C@@]1(O)C[C@H]2CN(CCc3c([nH]c4ccccc34)[C@@](C(=O)OC)(c3cc4c(cc3OC)N[C@H]3[C@@](O)(C(=O)OC)[C@H](OC(C)=O)[C@]5(CC)C=CCN6CC[C@]43[C@@H]65)C2)C1 was tested, and the T/C (dose: 0.5 mg/kg/injection, schedule: Q01DX001 (ip), vehicle: water) was 125 % of control, the T/C (dose: 1.0 mg/kg/injection, schedule: Q01DX001 (ip), vehicle: water) was 126 and 136 % of control and the T/C (dose: 2.0 mg/kg/injection, schedule: Q01DX001 (ip), vehicle: water) was 136 and 138 % of control. For the same compound, the T/C (dose: 4.0 mg/kg/injection, schedule: Q01DX001 (ip), vehicle: water) was 138 and 143 % of control and the survivor count (dose: 32.0 mg/kg/injection, schedule: Q01DX001 (ip), vehicle: water) was 3 of 6.

For COc1cccc2c1C(=O)c1c(O)c3c(c(O)c1C2=O)C[C@@](O)(C(=O)COC(=O)Cc1ccccc1)C[C@@H]3OC1CC(N)C(O)C(C)O1 (stereo not given in full), the T/C (dose: 1.0 mg/kg/injection, schedule: Q01DX009 (ip), vehicle: saline with Tween-80) was 130 % of control, the T/C [7] was 130 % of control and the survivor count [7] was 10 of 10. The survivor count (dose: 16.0 mg/kg/injection, schedule: Q01DX009 (ip), vehicle: saline with Tween-80) was 6 of 10.

With C(=C\c1ccc2cc(C3=NCCN3)[nH]c2c1)/c1ccc(Oc2ccc(C3=NCCN3)cc2)cc1 (tested in a mixture with another compound) the survivor count (dose: 50.0 mg/kg/injection, schedule: Q01DX005 (ip), vehicle: Klucel (hydroxypropylcellulose) (HPC)) was 5 of 6, the survivor count [8] was 0 of 6 and the survivor count [9] was 0 of 6.

In the case of NC(=O)c1ccc(N)nc1, the survivor count (dose: 5.0 mg/kg/injection, schedule: Q01DX009 (ip), vehicle: saline with Tween-80) is reported as 5 of 6, the survivor count (dose: 10.0 mg/kg/injection, schedule: Q01DX009 (ip), vehicle: saline with Tween-80) is reported as 4 of 6 and the survivor count (dose: 12.5 mg/kg/injection, schedule: Q01DX009 (ip), vehicle: saline with Tween-80) is reported as 6 of 6. For the same compound, the T/C (dose: 12.5 mg/kg/injection, schedule: Q04DX003 (ip), vehicle: saline with Tween-80) was 127 % of control, the survivor count (dose: 20.0 mg/kg/injection, schedule: Q01DX009 (ip), vehicle: saline with Tween-80) was 2 of 6 and the survivor count [10] was 6 of 6. The survivor count (dose: 25.0 mg/kg/injection, schedule: Q04DX003 (ip), vehicle: saline with Tween-80) was 6 of 6, the survivor count [11] was 2 of 6 and the survivor count (dose: 50.0 mg/kg/injection, schedule: Q04DX003 (ip), vehicle: saline with Tween-80) was 6 of 6. For the same compound, the survivor count [12] was 0 of 6, the survivor count (dose: 100.0 mg/kg/injection, schedule: Q04DX003 (ip), vehicle: saline with Tween-80) was 3 of 6 and the survivor count [13] was 0 of 6. For the same compound, the survivor count (dose: 200.0 mg/kg/injection, schedule: Q04DX003 (ip), vehicle: saline with Tween-80) was 0 of 6.

With COC1=C(OC)C(=O)C(OC)=C(OC)C1=O the survivor count [12] was 3 of 6 and the survivor count [13] was 0 of 6.

COc1cccc2c1C(=N)c1c(O)c3c(c(O)c1C2=O)C[C@@](O)(C(=O)CO)C[C@@H]3OC1CC(N)C(O)C(C)O1 (stereo not given in full) was tested, and the T/C (dose: 6.25 mg/kg/injection, schedule: Q04DX003 (ip), vehicle: water) was 128 % of control, the T/C (dose: 12.5 mg/kg/injection, schedule: Q04DX003 (ip), vehicle: water) was 132 and 148 % of control and the T/C (dose: 200.0 mg/kg/injection, schedule: Q04DX003 (ip), vehicle: water) was 126 % of control.

CC(=O)Nc1ccc(N=NN(C)Cc2ccccc2)cc1 was tested, and the T/C [14] was 127 % of control, the survivor count [15] was 2 of 6 and the survivor count [16] was 2 of 6 and 3 of 6.

In the case of O=C1C=CC(=O)C(C2OC(=O)C(Br)=C2Br)=C1 (stereo not given), the survivor count (dose: 200.0 mg/kg/injection, schedule: Q01DX005 (ip), vehicle: distilled water + Tween-80) is reported as 3 of 6.

For CCN(CC)c1ccc(NC(=S)NN)cc1, the survivor count (dose: 240.0 mg/kg/injection, schedule: Q01DX005 (ip), vehicle: Klucel (hydroxypropylcellulose) (HPC)) was 0 of 6.

With O=C1OC(=O)C2C3C=CC(O3)C12 (stereo not given) the survivor count (dose: 120.0 mg/kg/injection, schedule: Q01DX005 (ip), vehicle: saline) was 1 of 6 and the survivor count (dose: 240.0 mg/kg/injection, schedule: Q01DX005 (ip), vehicle: saline) was 0 of 6.

With C=CCC(C(=O)OC)c1ccc(F)cc1 (stereo not given) the survivor count (dose: 0.25 mg/kg/injection, schedule: Q01DX009 (ip), vehicle: saline) was 5 of 6 and the survivor count (dose: 0.5 mg/kg/injection, schedule: Q01DX009 (ip), vehicle: saline) was 6 of 6.

With O=C1ON=C(COc2ccccc2)/C1=C\c1ccc(Cl)cc1 the survivor count [5] was 3 of 6 and the survivor count [6] was 0 of 6.

For Nc1ncnc2c(C3OC(CO)C(O)C3O)[nH]nc12 (stereo not given), the T/C (dose: 8.0 mg/kg/injection, schedule: Q01DX009 (ip), vehicle: saline sonified) was 130 % of control, the T/C (dose: 12.5 mg/kg/injection, schedule: Q01DX009 (ip), vehicle: saline sonified) was 136 % of control [5 of 6 alive] and the survivor count (dose: 18.0 mg/kg/injection, schedule: Q01DX009 (ip), vehicle: saline sonified) was 5 of 6. The survivor count (dose: 25.0 mg/kg/injection, schedule: Q01DX009 (ip), vehicle: saline sonified) was 5 of 6.

With S=C(Oc1ccccc1)Oc1ccccc1 the survivor count [10] was 6 of 6, the survivor count [11] was 6 of 6 and the survivor count [13] was 4 of 6.

In the case of O=C(Nc1ncc([N+](=O)[O-])s1)c1ccc([N+](=O)[O-])cc1, the survivor count [3] is reported as 5 of 6, the survivor count [4] is reported as 0 of 6 and the survivor count (dose: 200.0 mg/kg/injection, schedule: Q01DX009 (ip), vehicle: saline) is reported as 0 of 6.

For CC1/C(=N/Nc2ccc([N+](=O)[O-])cc2)CC2C3(C)CCC2(C(C)C(=O)O)C(=O)C13 (stereo not given), the survivor count (dose: 200.0 mg/kg/injection, schedule: Q04DX003 (ip), vehicle: Klucel (hydroxypropylcellulose) (HPC)) was 6 of 6.

In the case of CC1(C)CC(N2CCOCC2)=CC(=NCc2ccccc2)N1, the survivor count [8] is reported as 0 of 6 and the survivor count [9] is reported as 0 of 6.

For N#CC(C#N)=C(C#N)c1ccccc1, the survivor count [11] was 3 of 6.

For CCCCCn1c(Cl)c(/C=N\Nc2ccc([N+](=O)[O-])cc2)c2ccccc21, the survivor count [14] was 6 of 6, the survivor count [15] was 5 of 6 and the survivor count [16] was 6 of 6.

COC(=O)CCC1=CC(=O)C(OC)=CC1=O was tested, and the survivor count [11] was 3 of 6 and 4 of 6, the survivor count [12] was 0 of 6 and 1 of 6 and the survivor count [13] was 0 of 6.
